From publication PMC4599966
These are yes or no findings as the source states them, for the method shown. Some results given as binding are weak or reduced against the parent protein; the word gives no strength.

Protein sequences, listed by entry. Tags and fused reporters are not part of them.
UniProt Q96CV9: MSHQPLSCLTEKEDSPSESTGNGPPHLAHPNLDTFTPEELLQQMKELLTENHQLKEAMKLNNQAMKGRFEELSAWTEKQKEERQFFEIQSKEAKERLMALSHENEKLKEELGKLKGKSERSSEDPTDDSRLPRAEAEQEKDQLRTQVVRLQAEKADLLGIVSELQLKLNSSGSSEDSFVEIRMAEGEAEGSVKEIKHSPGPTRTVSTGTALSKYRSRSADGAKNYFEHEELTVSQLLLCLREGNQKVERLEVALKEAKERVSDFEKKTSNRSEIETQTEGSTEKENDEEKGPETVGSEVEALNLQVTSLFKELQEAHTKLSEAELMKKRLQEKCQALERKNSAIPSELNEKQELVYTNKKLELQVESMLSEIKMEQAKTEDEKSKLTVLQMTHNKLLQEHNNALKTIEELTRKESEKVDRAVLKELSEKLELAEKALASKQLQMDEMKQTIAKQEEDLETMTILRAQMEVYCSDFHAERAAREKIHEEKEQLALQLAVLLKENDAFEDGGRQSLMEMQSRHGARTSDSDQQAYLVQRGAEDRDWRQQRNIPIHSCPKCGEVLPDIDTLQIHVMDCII

Molecular target: LC3C (two-hybrid bait) (UniProt Q9BXW4)
Assay: two-hybrid; mammalian 2-hybrid in CHO cells, bait in pM, prey in pVP16, luciferase reporter after 48 hours, normalised against a bait only control

binding: binds
Substance: optineurin full-length wild-type (two-hybrid prey) (from UniProt Q96CV9 1-577)
